1 substance from paper PMC4447065 can be followed below.

Protein sequences, listed by entry. Tags and fused reporters are not part of them. Lines headed by an entry give the natural chain unless they say otherwise; changes in a name come on top. Chains listed by the source or under a name are the forms on record and can include a tag or linker.
FLAG-hnRNPUL1^RK (R612K, R618K, R620K, R639K, R645K, R656K and R661K) (Q9BUJ2, form named): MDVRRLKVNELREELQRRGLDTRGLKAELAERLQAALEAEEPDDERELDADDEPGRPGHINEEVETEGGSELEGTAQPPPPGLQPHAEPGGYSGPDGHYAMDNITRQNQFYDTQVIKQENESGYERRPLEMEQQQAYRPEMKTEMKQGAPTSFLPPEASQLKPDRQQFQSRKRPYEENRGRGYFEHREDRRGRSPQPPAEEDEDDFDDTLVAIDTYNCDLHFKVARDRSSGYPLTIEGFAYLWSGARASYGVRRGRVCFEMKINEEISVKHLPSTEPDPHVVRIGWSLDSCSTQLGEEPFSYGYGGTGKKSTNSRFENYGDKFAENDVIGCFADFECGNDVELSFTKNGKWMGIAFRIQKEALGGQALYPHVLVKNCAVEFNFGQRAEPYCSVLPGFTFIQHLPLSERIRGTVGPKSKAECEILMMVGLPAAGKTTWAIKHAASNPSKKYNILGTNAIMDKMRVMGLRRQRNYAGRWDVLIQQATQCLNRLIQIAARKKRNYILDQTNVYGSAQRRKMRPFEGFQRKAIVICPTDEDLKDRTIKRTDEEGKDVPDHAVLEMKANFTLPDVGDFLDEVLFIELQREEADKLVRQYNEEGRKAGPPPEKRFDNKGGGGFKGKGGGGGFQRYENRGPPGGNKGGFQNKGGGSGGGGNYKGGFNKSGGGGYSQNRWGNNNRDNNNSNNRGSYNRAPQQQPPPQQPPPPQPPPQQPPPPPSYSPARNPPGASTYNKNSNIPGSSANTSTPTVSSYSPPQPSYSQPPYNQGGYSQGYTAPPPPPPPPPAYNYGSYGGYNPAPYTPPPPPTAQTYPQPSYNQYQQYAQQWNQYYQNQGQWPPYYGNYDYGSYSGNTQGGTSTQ
UniProt Q99873: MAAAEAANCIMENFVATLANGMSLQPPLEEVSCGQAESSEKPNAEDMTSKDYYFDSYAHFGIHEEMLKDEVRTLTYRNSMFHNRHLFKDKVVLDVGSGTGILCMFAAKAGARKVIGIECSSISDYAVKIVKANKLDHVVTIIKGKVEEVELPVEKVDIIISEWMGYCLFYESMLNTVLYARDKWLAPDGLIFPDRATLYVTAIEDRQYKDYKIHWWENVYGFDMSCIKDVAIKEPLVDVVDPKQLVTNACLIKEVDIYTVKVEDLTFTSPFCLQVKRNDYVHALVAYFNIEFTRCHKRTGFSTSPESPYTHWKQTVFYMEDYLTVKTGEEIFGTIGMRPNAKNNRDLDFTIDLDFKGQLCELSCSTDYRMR

These are yes or no findings as the source states them, for the method shown. Binding seen in cells or lysates may run through a third protein.

For the assay, the target named is FLAG-hnRNPUL1^RK (R612K, R618K, R620K, R639K, R645K, R656K and R661K) (human) (UniProt Q9BUJ2). Put plainly: co-IP; anti-FLAG immunoprecipitation from lysates of transfected HEK293 cells (50 mM HEPES pH 7.4, 150 mM NaCl, 1% Triton X-100; protein A Sepharose), blot for endogenous PRMT1.

Regarding “protein arginine methyltransferase 1 (PRMT1), endogenous (from UniProt Q99873 1-371) (enzyme)”, the binding entry is reported as “no binding”.
